In the test the target is BCMA抗原(Acro，CD5-H52H5) (UniProt Q02223). Nature of the test: BLI (Octet), IgG on sensor, BCMA antigen 100 to 1.563 nM. (BLI is a label-free optical method that tracks binding on a fibre tip over time.)

Protein sequences, listed by entry. Tags and fused reporters are not part of them. Residues count along the entry.
UniProt Q02223, residues 1-54: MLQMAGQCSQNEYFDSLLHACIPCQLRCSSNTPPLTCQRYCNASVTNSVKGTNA

These are yes or no findings as the source states them, for the method shown. Some results given as binding are weak or reduced against the parent protein; the word gives no strength.

B1: mAb 41 (Fc fusion, not shown: a dimerising Fc or GST)
chain: QSVLTQPPSVSGAPGQTVTISCTGSSSNIGAGYIVNWYQQLPGTAPKLLIYFTGNRPSGVPGRFSGSRSGTSASLAITRLQAEDEADYYCQSFDRSLGGYVFGTATKVTVLGSRGGGGSGGGGSGGGGSLEMAQLQLQESGPGLVKPSETLSLTCTVSGGSISSSSYYWGWIRQPPGKGLEWIGSISYSGSTYYNPSLKSRVTISVDTSKNQFSLKLSSVTAADTAVYYCARDRGDTILDVWGQGTMVTVSS
Consider B1, for which the binding entry is reported as “binds”.
